The assay has as its target GFP-tagged SehA toxin (Salmonella enterica HigB-like toxin A), wild type (Salmonella enterica serovar Typhimurium 14028s). Description: pull-down.

Results are given in words; binding and its absence hold for the method and conditions named. Binding can be weak; no strength is given. Where a sequence is shown, tags or fusion partners need not be part of it.

On to “His-tagged dsRNA-binding domain (dsRBD) of RNase III (155-227 aa) (from UniProt Q56056 155-226) (domain or fragment)”, for which the binding result is “binds”.

B1: His-tagged ribonuclease III (RNase III) of Salmonella (enzyme, UniProt Q56056 1-226)
chain: MNPIVINRLQRKLGYTFNHQELLQQALTHRSASSKHNERLEFLGDSILSFVIANALYHRFPRVDEGDMSRMRATLVRGNTLAELAREFDLGECLRLGPGELKSGGFRRESILADTVEALIGGVFLDSNIQTVEQLILNWYKTRLDEISPGDKQKDPKTRLQEYLQGRHLPLPSYLVVQVRGEAHDQEFTIHCQVSGLSEPVVGTGSSRRKAEQAAAEQALKKLELE
Take B1: the binding entry is “binds”.

These data come from paper doi:10.1101/2024.07.09.602740.
